Data as given in PubChem BioAssay AID1259254 (NCATS, 2017)
Purpose: 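Gene knock-downs that lead to re-replication, shown by excess G2 DNA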 (primary screen). Cells: human HCT116 colorectal cancer cells. Knock-down reagent: single siRNA against human genes. Timing: 3 days. Measurement: 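Nuclei stained with Hoechst and imaged; cell-cycle phase assigned by DNA content; G2 share scaled per plate, non-targeting siRNA 0%, GMNN siRNA 100%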. Direction: G2 robust z-score and G2 cells, % of GMNN control: higher = more G2 cells, more excess DNA replication. Rule for the call: 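Active siRNAs have a G2 robust z of 5 or more median absolute deviations over the median, which in these data means about 38% or higher of GMNN control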.
Shown is a random part of about 59,000 reagents. Of all reagents, about 1,550 (2.6%) are marked active. 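G2 share is only a proxy for re-replication; each gene was hit by three separate siRNAs, and active genes were retested.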 Unmarked entries are inactive. The numbers tell different reagents against one gene apart. Not all columns of the deposit are shown. No sequences are given here. The record does not give: the amount of reagent.

no.	gene symbol	siRNA no.	G2 robust z-score	G2 cells, % of GMNN control
1	CENPO	1	-0.142	1.97
2	CENPO	2	-0.0808	2.4
3	CENPO	3	-0.719	-2.09
4	MAP3K19	1	0.383	5.66
5	MAP3K19	2	1.06	10.4
6	MAP3K19	3	-0.662	-1.69
7	ARHGDIB	1	0.133	3.9
8	ARHGDIB	2	-0.00652	2.92
9	ARHGDIB	3	-0.691	-1.89
10	EIF1P3	1	-0.435	-0.0903
11	EIF1P3	2	7.17 (active)	53.4
12	EIF1P3	3	-0.809	-2.73
13	RBM12	1	1.71	15
14	RBM12	2	-0.917	-3.48
15	RBM12	3	-0.253	1.18
16	TYMS	1	2.08	17.6
17	TYMS	2	0.00537	3.01
18	TYMS	3	0.777	8.43
19	KCNJ16	1	-0.293	0.906
20	KCNJ16	2	-0.23	1.35
21	KCNJ16	3	-0.151	1.91
22	VAV2	1	-1.03	-4.27
23	VAV2	2	-1.02	-4.18
24	VAV2	3	0.336	5.33
25	OR13C5	1	-0.581	-1.12
26	OR13C5	2	-0.634	-1.49
27	OR13C5	3	-0.615	-1.36
28	PLOD1	1	1.51	13.6
29	PLOD1	2	-0.604	-1.28
30	PLOD1	3	4.59	35.3
31	TEX30	1	2.91	23.4
32	TEX30	2	0.937	9.56
33	TEX30	3	0.351	5.44
34	ZNF142	1	-0.839	-2.93
35	ZNF142	2	0.0202	3.11
36	ZNF142	3	-0.58	-1.11
37	ACP1	1	0.316	5.19
38	ACP1	2	-0.155	1.87
39	ACP1	3	-0.473	-0.361
40	MSR1	1	-0.143	1.96
41	MSR1	2	-0.615	-1.36
42	MSR1	3	0.0388	3.24
43	MRPL2	1	2.51	20.6
44	MRPL2	2	-0.576	-1.08
45	MRPL2	3	0.0172	3.09
46	CD34	1	-0.698	-1.94
47	CD34	2	-0.316	0.743
48	CD34	3	-1.19	-5.43
49	IFNAR1	1	-0.231	1.34
50	IFNAR1	2	0.243	4.67
51	IFNAR1	3	2.68	21.8
52	C11orf71	1	3.35	26.5
53	C11orf71	2	-0.853	-3.04
54	C11orf71	3	-0.268	1.08
55	GLE1	1	0.795	8.56
56	GLE1	2	0.576	7.02
57	GLE1	3	2.57	21
58	FAM89A	1	0.654	7.57
59	FAM89A	2	-1.21	-5.58
60	FAM89A	3	-0.488	-0.466
61	RPS15AP9	1	-0.73	-2.17
62	RPS15AP9	2	0.241	4.66
63	RPS15AP9	3	-1.17	-5.26
64	LMNTD1	1	0.77	8.38
65	LMNTD1	2	-0.755	-2.34
66	LMNTD1	3	0.51	6.56
67	TCEAL7	1	-1.44	-7.17
68	TCEAL7	2	-0.618	-1.38
69	TCEAL7	3	-0.538	-0.82

In a second layout: results already given
{"gene symbol":"ARHGDIB","siRNA no.":3,"G2 robust z-score":-0.691,"G2 cells, % of GMNN control":-1.89}
{"gene symbol":"EIF1P3","siRNA no.":1,"G2 robust z-score":-0.435,"G2 cells, % of GMNN control":-0.0903}
{"gene symbol":"EIF1P3","siRNA no.":2,"G2 robust z-score":"7.17 (active)","G2 cells, % of GMNN control":53.4}
{"gene symbol":"EIF1P3","siRNA no.":3,"G2 robust z-score":-0.809,"G2 cells, % of GMNN control":-2.73}
{"gene symbol":"RBM12","siRNA no.":1,"G2 robust z-score":1.71,"G2 cells, % of GMNN control":15}
{"gene symbol":"RBM12","siRNA no.":2,"G2 robust z-score":-0.917,"G2 cells, % of GMNN control":-3.48}
{"gene symbol":"RBM12","siRNA no.":3,"G2 robust z-score":-0.253,"G2 cells, % of GMNN control":1.18}
{"gene symbol":"TYMS","siRNA no.":1,"G2 robust z-score":2.08,"G2 cells, % of GMNN control":17.6}
{"gene symbol":"TYMS","siRNA no.":2,"G2 robust z-score":0.00537,"G2 cells, % of GMNN control":3.01}
